Paper PMC9561264
No constants are given. Whether binding was seen depends on the method and setting. Some binding calls cover weakened binding; strength is not graded here. Each block holds one substance with its values, some of them ahead of it.

By UniProt entry, the sequences of proteins in these tests, tags left out. Where a name states a change or a piece, a line headed by the entry shows the natural chain unless it says otherwise.
UniProt O15527: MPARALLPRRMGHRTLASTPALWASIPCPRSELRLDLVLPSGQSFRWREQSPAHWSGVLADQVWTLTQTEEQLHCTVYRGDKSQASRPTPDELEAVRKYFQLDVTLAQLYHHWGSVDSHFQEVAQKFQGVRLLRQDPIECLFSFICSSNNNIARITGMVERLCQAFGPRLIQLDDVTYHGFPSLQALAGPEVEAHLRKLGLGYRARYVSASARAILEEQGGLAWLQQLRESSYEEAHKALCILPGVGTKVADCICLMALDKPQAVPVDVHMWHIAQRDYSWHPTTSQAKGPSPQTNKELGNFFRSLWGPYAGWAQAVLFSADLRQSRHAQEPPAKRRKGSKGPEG
UniProt P01106: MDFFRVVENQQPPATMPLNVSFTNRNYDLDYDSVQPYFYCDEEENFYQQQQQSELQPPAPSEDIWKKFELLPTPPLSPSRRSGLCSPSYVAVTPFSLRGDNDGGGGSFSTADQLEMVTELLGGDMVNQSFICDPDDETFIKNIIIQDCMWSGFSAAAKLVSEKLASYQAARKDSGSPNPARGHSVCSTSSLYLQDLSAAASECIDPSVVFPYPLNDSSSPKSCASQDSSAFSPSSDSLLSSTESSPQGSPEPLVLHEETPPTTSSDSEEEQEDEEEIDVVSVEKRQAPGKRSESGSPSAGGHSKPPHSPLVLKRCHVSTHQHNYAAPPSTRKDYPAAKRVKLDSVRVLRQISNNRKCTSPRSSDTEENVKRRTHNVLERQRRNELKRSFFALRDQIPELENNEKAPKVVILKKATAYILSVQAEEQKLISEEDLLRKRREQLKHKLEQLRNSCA

Legend:
hOGG1 C28A (human) [1] = target: hOGG1 C28A (human) (UniProt O15527); experiment: fluorescence polarisation; oxidising conditions (5 uM H2O2); 5 nM Ni-NTA AF488 labelled his6-hOGG1, unlabelled protein titrated (Myc 1.22 nM-2 uM, LSD1 1.38 nM-60 uM, hOGG1 0.24 nM-8 uM); 20 mM Tris-HCl pH 7.6, 200 mM NaCl; 25 C; single Hill fit; both purified
hOGG1 K249Q (human) [2] = target: hOGG1 K249Q (human) (UniProt O15527); experiment: AFM imaging, volume analysis; hOGG1 wildtype or K249Q (150 nM) with Myc (30 nM) and 505 bp oxoG DNA (3 nM), AFM buffer, oxidising (pre-oxidised hOGG1) and reducing (5 mM DTT) conditions; volumes of DNA-bound complexes; both purified
hOGG1 C28A (human) [3] = target: hOGG1 C28A (human) (UniProt O15527); experiment: AFM imaging, volume analysis; pre-oxidised hOGG1 (wildtype or mutant, 150 nM) alone with 505 bp oxoG DNA (3 nM), AFM buffer (25 mM HEPES pH 7.5, 25 mM NaCl, 10 mM MgCl2) without DTT; volumes of DNA-bound complexes; both purified
hOGG1 C28A (human) [4] = target: hOGG1 C28A (human) (UniProt O15527); experiment: non-reducing SDS-PAGE with anti-His Western blot; 8 uM purified hOGG1 wildtype or cysteine mutant, oxidised (pre-oxidised with 5 uM H2O2); non-reducing 15% SDS-PAGE, mouse anti-His antibody; both purified
hOGG1 K249Q (human) [5] = target: hOGG1 K249Q (human) (UniProt O15527); experiment: condition: only reducing conditions (5 mM DTT); 150 nM hOGG1; AFM imaging, volume analysis; native hOGG1 (wildtype or K249Q, 150 nM) alone with 505 bp oxoG DNA (3 nM), AFM buffer with 5 mM DTT; volumes of DNA-bound complexes; both purified

- binding (hOGG1 C28A (human) [1]): binds
- binding (hOGG1 K249Q (human) [2]): binds
Substance: GST tagged full length c-Myc (from UniProt P01106 1-454)

- binding (hOGG1 C28A (human) [3]): no binding (tested: 150 nM)
- binding (hOGG1 C28A (human) [4]): no binding (tested: 8 μM)
Substance: hOGG1 C28A (from UniProt O15527 1-345) (enzyme)

- binding (hOGG1 K249Q (human) [5]): no binding
Substance: hOGG1 K249Q (from UniProt O15527 1-345) (enzyme)
